Usually AC50 stands for the concentration giving half of the maximal activity seen. Read a low AC50 as greater potency.

The other results are listed elsewhere or left out. These are further read-outs of the screen, such as a control signal, another cell line or another target. No call is given for them. The list favours compounds with an active or inconclusive main result. Words in brackets tell the shape of the fitted curve; partial curves, single points and poor fits give uncertain potencies.

This experiment is described as follows: qHTS Assay for Lipid Storage Modulators in Drosophila S3 Cells.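 On cell number change: cells counted by Cell Tracker Red CMTPX staining in the red channel.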 Particulars: BODIPY lipid droplet fluorescence, 18-24 h; for cell number change: measured here: cell count max response, cells fed with added oleic acid. The method, boiled down:
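Drosophila S3 cells loaded with oleic acid (400 uM, as added) and compounds at several concentrations; lipid droplets imaged by 488-nm laser-scanning cytometry, 500–530 nm intensity and object ratio to cell channel. Percent activity normalized to 20 uM Triacsin C.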
Background: qHTS replaces the single test concentration by a dilution series.

[1] abbreviates: measured here: lipid fluorescence (Fed channel) AC50, cells fed with added oleic acid.
The mark [2] stands for this setting: measured here: cell number channel AC50, cells fed with added oleic acid.

In the case of `Cc1ccc(C)c(N2CCN(C(=O)Cn3c(=O)oc4cc(S(=O)(=O)N5CCCC5)ccc43)CC2)c1`, the cell number change is -5.39%. Besides, the AC50 under setting [1] is 6.51 µM [rising, single point].
As to `CC(/C=N/NC(=O)c1nnn(-c2nonc2N)c1C(C)C)=C\c1ccccc1`, the cell number change was determined as 7.65%. The concentration at half-maximal activity (AC50) under setting [2] was 0.0731 µM [rising, full curve, poor fit]. In addition, the AC50 under setting [1] was 23.1 µM [falling, single point].
As to `O=C(CC1CCCC1)N1CCN(S(=O)(=O)c2ccc(F)cc2)CC1`, the cell number change was -10.6%. Besides, the AC50 under setting [2] is 6.51 µM [rising, single point]. The AC50 under setting [1] was 6.51 µM [rising, single point].
As to `CC(=O)Oc1c(C)c(OC(C)=O)c2c(c1C(C)=O)OC1CC(=O)C(C(C)=O)=C(O)C21C` (stereo not given), under setting [1], the concentration at half-maximal activity (AC50) was 0.0184 µM [rising, full curve, poor fit].
With `Cc1cc(C)nc(NNS(=O)(=O)c2ccc(F)c(Cl)c2)n1`, the cell number change came out at 68%. For the same compound, the AC50 under setting [2] is 14.6 µM [rising, partial curve].
For the compound `O=C(Nc1ccc(Cl)cc1C(=O)N1CCOCC1)c1cccc([N+](=O)[O-])c1`, the cell number change was 64.6%. Besides, the AC50 under setting [2] was 0.058 µM [rising, full curve].
On to `O=C(CSc1ccc(Cl)cc1)NC1=NN(c2ccccc2)C(=O)C1`, for which the cell number change is 17.2%.
In the case of `CC(C)NC(=O)c1ccc2c(c1)nnn2C`, under setting [1], the AC50 is 0.0326 µM [falling, full curve, poor fit].
Turning to `Cc1cccc(NC(=O)CSc2nc(C)nc3c2c(=O)n(C)c(=O)n3C)c1`, the cell number change is 14.2%. For the same compound, the AC50 under setting [1] was 23.1 µM [rising, single point].
For the compound `O=C(CSc1nnc(C2CC2)n1-c1ccccc1)NCCc1ccc(F)cc1`, the cell number change worked out at 52.2%. In addition, under setting [2], the concentration at half-maximal activity (AC50) is 6.51 µM [rising, partial curve].
For `CN1CCN(CCc2nc3cc(NC(=O)COc4ccc(Cl)cc4)ccc3n2C)CC1`, the cell number change was 11.5%. Also, the half-maximal activity concentration (AC50) under setting [1] is 29.1 µM [rising, single point].
`O=C(C1CCN(c2nnc(-n3cccc3)s2)CC1)N1CCOCC1`: the cell number change is -81.2%. Also, the AC50 under setting [2] is 29.1 µM [falling, partial curve, poor fit]. The AC50 under setting [1] was 0.291 µM [falling, partial curve, poor fit].
Take `CCOC(=O)N1CCN(C(=O)COc2ccc(Br)cc2)CC1`: the cell number change was -3.04%. In addition, under setting [1], the AC50 was 5.17 µM [rising, partial curve].
Take `COc1ccc(C(=O)NC=C2C(=O)OC(C)(C)OC2=O)cc1`: the cell number change is -18.6%. For the same compound, the AC50 under setting [1] was 0.146 µM [falling, full curve, poor fit].
Take `CC(C)c1ccc(N(CC(=O)NC2CCCCC2)C(=O)CNC(=O)c2ccco2)cc1`: the cell number change was 5.22%. Moreover, under setting [1], the AC50 is 29.1 µM [falling, single point].
For `CCOc1cc(CNC(C)(C)CO)cc(Br)c1OCc1ccc(Cl)cc1Cl`, the cell number change was -38.6%. For the same compound, the AC50 under setting [2] was 23.1 µM [falling, partial curve]. For the same compound, the AC50 under setting [1] was 29.1 µM [falling, single point].
On to `CCN1C(c2ccccc2)C(C)C(=O)C(C)C1c1ccccc1` (stereo not given), for which the cell number change turned out to be 39.6%. In addition, the AC50 under setting [2] is 9.2 µM [rising, partial curve].
As to `COc1ccc(C(C)NC(=S)NCc2ccc(F)cc2)cc1` (stereo not given), the cell number change was -18.8%.
As for `Cc1ccc(S(=O)(=O)N2CCN(C(=O)C3Cc4ccccc4CN3C(=O)c3ccco3)CC2)cc1` (stereo not given), the cell number change is -23.5%. Besides, under setting [1], the AC50 is 6.51 µM [falling, partial curve, poor fit].
Turning to `Cc1noc(C)c1CSc1nnc(-c2ccccc2F)n1CCc1ccccc1`, the cell number change was -14.7%.
In the case of `Cc1cc(C)c(S(C)(=O)=O)c(N(C)NC(=O)c2c(F)cccc2F)n1`, the cell number change is -22.4%. Further, the AC50 under setting [2] was 0.517 µM [rising, single point].
As to `CCOc1ccc2oc(-c3ccccc3)c(C(=O)N3CCN(CCO)CC3)c2c1`, the AC50 under setting [2] was 6.51 µM [rising, single point].
Consider `COc1ccc(N2CCN(C(CNC(=O)c3ccco3)c3ccco3)CC2)cc1` (stereo not given), for which the half-maximal activity concentration (AC50) under setting [1] was 2.31 µM [rising, single point].
On to `Cc1ccc(C(=O)Nc2cccc(C(F)(F)F)c2)cc1Nc1ccccn1`, for which the cell number change was -46.8%. In addition, the AC50 under setting [2] was 20.6 µM [falling, partial curve, poor fit]. Moreover, the AC50 under setting [1] was 29.1 µM [falling, single point].
Take `CC(=O)c1cccc(NC(=S)N2CCN(S(=O)(=O)c3ccccc3)CC2)c1`: the cell number change is 9.48%. For the same compound, under setting [1], the AC50 was 4.61 µM [rising, single point].
For `CCOC(=O)CCC(NC(=O)CCC(=O)NC(CCC(=O)OCC)C(=O)OCC)C(=O)OCC` (stereo not given), the cell number change is -20.4%.
On to `CCN(CC(=O)NCc1ccc(Cl)cc1)C(=O)CCOc1ccccc1C`, for which the cell number change was 145%.
Same read-out and setting: the same measure for `C/C(=N\NC(=O)C(=O)Nc1cccc(Cl)c1)c1ccncc1`: -14.9%.
Regarding `O=c1c(Cc2ccc(F)cc2)c(O)ccn1Cc1cccc(Cl)c1`, the cell number change is -78.9%. For the same compound, the half-maximal activity concentration (AC50) under setting [2] is 25.9 µM [falling, partial curve].
`COc1ccc(CCNC(=O)CCCOc2ccc(C)cc2)cc1OC`: the cell number change is -50%. Moreover, the AC50 under setting [2] is 0.0058 µM [falling, full curve, poor fit]. Further, under setting [1], the half-maximal activity concentration (AC50) was 29.1 µM [falling, single point].
`CCN(Cc1ccc2c(c1)OCO2)C(=O)CSc1ncnc2sccc12`: the cell number change is -7.51%.
For the compound `Clc1ccc(Cn2ncc3c(N4CCCCC4)ncnc32)c(Cl)c1`, the cell number change was 61.4%. For the same compound, the AC50 under setting [2] was 11.6 µM [rising, partial curve, poor fit].
In the case of `Cc1c(C(=O)OC(C)CCN(C)C)oc2ccccc12` (stereo not given), the cell number change is -29.3%. Also, the AC50 under setting [2] is 2.91 µM [falling, full curve, poor fit]. In addition, under setting [1], the AC50 is 3.26 µM [falling, full curve, poor fit].
With `CC1=C(C(=O)OC(C)C)C(/C=C/c2ccccc2)NC(=O)N1` (stereo not given), the cell number change came out at 33.9%. The AC50 under setting [2] was 3.66 µM [rising, full curve, poor fit].
On to `O=S(Cc1cc(Sc2ccccc2)nc(-c2ccccc2)n1)c1ccccc1` (stereo not given), for which the cell number change is -16.8%. Further, the AC50 under setting [1] is 6.51 µM [rising, single point].
As for `CN(C)S(=O)(=O)c1ccc(-c2csc(N/N=C/c3ccc(O)cc3)n2)cc1`, the cell number change was -25%. Further, under setting [1], the AC50 was 32.6 µM [falling, single point].
As to `CCN1CCN(c2cc(C)c3cc(NC(=O)c4cc(OC)cc(OC)c4)ccc3n2)CC1`, the AC50 is 0.103 µM [rising, full curve, poor fit] under setting [2] and 0.13 µM [rising, full curve, poor fit] under setting [1].

The record behind these values is PubChem BioAssay AID2685 (National Center for Advancing Translational Sciences (NCATS), 2010).
